Test results taken from publication PMC13449084.
These are yes or no findings as the source states them, for the method shown. Binding seen in cells or lysates may run through a third protein. Some entries that bind do so weakly or less than the wild type.

Biological target: T1, Parkin (mouse (endogenous in heart)) (UniProt Q9WVS6)
T1 sequence: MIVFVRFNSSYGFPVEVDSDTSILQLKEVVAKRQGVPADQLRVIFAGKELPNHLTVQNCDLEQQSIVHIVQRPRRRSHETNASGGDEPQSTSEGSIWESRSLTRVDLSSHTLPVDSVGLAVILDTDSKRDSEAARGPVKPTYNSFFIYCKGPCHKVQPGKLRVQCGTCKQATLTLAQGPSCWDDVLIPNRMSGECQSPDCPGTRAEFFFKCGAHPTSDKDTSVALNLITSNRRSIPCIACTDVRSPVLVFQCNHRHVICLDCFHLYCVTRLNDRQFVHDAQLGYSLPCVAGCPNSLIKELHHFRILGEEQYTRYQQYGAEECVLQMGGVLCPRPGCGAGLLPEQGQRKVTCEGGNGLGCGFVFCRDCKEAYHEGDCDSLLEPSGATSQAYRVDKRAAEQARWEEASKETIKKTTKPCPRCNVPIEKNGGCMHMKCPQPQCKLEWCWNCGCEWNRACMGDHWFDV
Test: co-IP; myocardial whole-cell lysate (500 uL) incubated with 6-10 ug of antibody or IgG (control) at 4°C overnight, then protein A/G magnetic beads for 2 h; western blot; mouse model of DOX-induced myocardial damage

B1: Fibroblast growth factor 13 (protein, UniProt P70377 1-245)
chain: MAAAIASSLIRQKRQAREREKSNACKCVSSPSKGKTSCDKNKLNVFSRVKLFGSKKRRRRRPEPQLKGIVTKLYSRQGYHLQLQADGTIDGTKDEDSTYTLFNLIPVGLRVVAIQGVQTKLYLAMNSEGYLYTSEHFTPECKFKESVFENYYVTYSSMIYRQQQSGRGWYLGLNKEGEIMKGNHVKKNKPAAHFLPKPLKVAMYKEPSLHDLTEFSRSGSGTPTKSRSVSGVLNGGKSMSHNEST
With B1 the binding was “binds”.
